Values quoted from earlier work, collected in patent US20120003296A1, “NEW METHODS OF TREATING DRY EYE SYNDROME” (priority 2010, published 2012).
Some results were stated once for a whole list of compounds, not compound by compound. Some ranges recur; such a range may be that of the whole group of compounds.

details: in vivo; cited from earlier work

Substance	Effective duration of action	Maximum duration
Insulin aspart	3 to 4 h	4 to 6 h
Insulin glulisine	3 to 4 h	4 to 6 h
Insulin lispro	3 to 4 h	4 to 6 h
